Data as given in patent US20210153484A1, “Humanized Mouse Model” (The Wistar lnstitute, priority 2018, published 2021).
“Also recorded” adds a separate entry of the source. At least one structure is not confirmed: it was looked up by name or label, or the drawing left a doubt.

Test system: established melanoma tumors
Assay: Sunitinib and anti-PD1 combination therapy of established tumors in Hu-mice
Type: in vivo, mouse
Conditions: Sunitinib 20 mg/kg daily oral gavage, anti-PD1 10 mg/kg weekly, 6 injections

CCN(CC)CCNC(=O)c1c(C)[nH]c(/C=C2\C(=O)Nc3ccc(F)cc32)c1C [Sunitinib] was tested. Which “tumor growth / regression of established tumors” value did it give?
The value was “did not influence the tumor growth significantly; also recorded: did not have any effect of tumor growth”.
